The assay concerns the target extracellular domain of human IL10Rβ (amino acids 20-220, UniProtKB Q08334) (human) (UniProt Q08334). The assay is described as follows: phage display biopanning on the antigen, positive colonies by PE-ELISA.

By UniProt entry, the sequences of proteins in these tests, tags left out. Residues count along the entry.
UniProt Q08334, residues 20-220: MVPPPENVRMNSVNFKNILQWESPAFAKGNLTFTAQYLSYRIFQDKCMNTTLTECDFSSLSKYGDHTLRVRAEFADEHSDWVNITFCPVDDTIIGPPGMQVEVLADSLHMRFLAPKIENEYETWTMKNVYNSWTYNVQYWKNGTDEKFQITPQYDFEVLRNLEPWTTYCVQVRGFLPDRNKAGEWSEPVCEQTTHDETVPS

Our source for the binding values is patent US20250376528A1.

No constants are given. Whether binding was seen depends on the method and setting. Some entries that bind do so weakly or less than the wild type.

B1: anti-hIL-10Rβecd VHH SEQ ID NO 55 (VHH)
VHH: QVQLQESGGGSVEAGGSLRLSCAASGYTHSSYCMGWFRQAPGKEREGVAAIDVDGSTTYADSVKGRFTISKDNAKNTLYLQMNSLKPEDTGMYYCAAEFADCSSNYFLPPGAVRYWGQGTQVTVSS
As to B1, the binding result is given as “binds”.

B2: anti-hIL-10Rβecd VHH SEQ ID NO 51 (VHH)
VHH: QVQLQESGGGSVQAGGSLRLSCAASGYTYSSGCMGWFRQAPGKEREAVAAINSDGSTSYADSVKGRFTISKDNAKNTLYLQMNSLKPEDTAMYYCAAEPYCSGGYPRWSVAEFGYWGQGTQVTVSS
Consider B2, for which the binding result is listed as “binds”.

B3: anti-hIL-10Rβecd VHH SEQ ID NO 53 (VHH)
VHH: QVQLQESGGGSVQAGGSLRLSCAASRYTYNSYCMGWFRQAPGKEREGVATIDSDGMTRYADSVKGRFTISKDNAKNTLYLQMNSLKPEDTAMYYCAADADCTIAAMTTNPLGQGTQVTVSS
With B3, the binding result is “binds”.

B4: anti-hIL-10Rβecd VHH SEQ ID NO 54 (VHH)
VHH: QVQLQESGGGSVQAGGSLRLSCTVSRYTASVNYMGWFRQAPGKEREGVATIFTGAGTTYYANSVKGRFTISRDNAKNTAYLQMNSLKPEDTAIYYCAVDFRGGLLYRPAYEYTYRGQGTQVTVSS
As for B4, the binding entry was “binds”.
